Experimental data: PMC8692896
No constants are given. Whether binding was seen depends on the method and setting. In cells and extracts the contact can be indirect. Some results given as binding are weak or reduced against the parent protein; the word gives no strength.

Target: T1, carnitine palmitoyl transferase 1a (CPT1a), endogenous in mouse bone marrow-derived macrophages (mouse (endogenous in BMDMs)) (UniProt P97742)
T1 sequence: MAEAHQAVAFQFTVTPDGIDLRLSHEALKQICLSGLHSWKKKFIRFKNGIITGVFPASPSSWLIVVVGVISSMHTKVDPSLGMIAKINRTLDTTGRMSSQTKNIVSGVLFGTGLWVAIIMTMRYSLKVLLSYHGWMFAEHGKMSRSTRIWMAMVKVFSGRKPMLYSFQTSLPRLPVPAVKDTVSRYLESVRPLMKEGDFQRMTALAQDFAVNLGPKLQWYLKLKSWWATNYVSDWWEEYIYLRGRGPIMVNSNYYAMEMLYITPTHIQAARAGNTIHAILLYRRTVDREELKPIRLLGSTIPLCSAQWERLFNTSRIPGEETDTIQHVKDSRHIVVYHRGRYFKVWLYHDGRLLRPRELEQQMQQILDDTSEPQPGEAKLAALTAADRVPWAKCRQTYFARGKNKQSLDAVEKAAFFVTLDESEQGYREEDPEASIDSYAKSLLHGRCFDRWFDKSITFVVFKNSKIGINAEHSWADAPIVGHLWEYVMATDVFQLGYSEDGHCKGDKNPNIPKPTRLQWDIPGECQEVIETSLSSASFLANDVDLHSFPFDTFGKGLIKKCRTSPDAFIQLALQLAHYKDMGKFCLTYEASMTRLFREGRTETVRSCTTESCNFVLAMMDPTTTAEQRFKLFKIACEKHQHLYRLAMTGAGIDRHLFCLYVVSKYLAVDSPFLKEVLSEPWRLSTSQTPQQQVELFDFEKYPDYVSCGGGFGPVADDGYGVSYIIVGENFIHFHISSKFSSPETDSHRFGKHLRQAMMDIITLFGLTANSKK
Test: co-IP; lysates of mouse BMDMs (Rosa26 LSL-MLS-Stat3 with or without Ubc ERT2Cre, 4-OHT for 3 days, then 100 ng/mL LPS for 6 h) in IP lysis buffer; anti-CPT1a antibody at 4 °C overnight, protein A/G-agarose; Western blot

B1: ubiquitin-specific peptidase 50 (USP50), endogenous in mouse bone marrow-derived macrophages (enzyme, UniProt Q6P8X6 1-390)
chain: MCFIDMASHRPVPADDFGAYYNLAECADYDSLPESKTQPHFQGVTGLRNLGNTCYMNAILQCLCSVSPLVEYFLSGKYITALKKDCSEVTTAFAYLMTDMWLGDSDCVSPEIFLSAVGSLYPAFLKKTQQDAQEFLIYVLNELHEALKKHCRRRVNEKRTGQSCCRKVPAQETSIITRLFEGQLSYSITCLKCESCTHKNEVFTILSLPIPSDYECSLQDCLQCFFQQDTLTWSNQIYCSFCEIKQEAAVRTTISKVPKIIVFHFKRFDIQGTVKRKLRTDIHYPLTNLDLTPYICPVFRKHPMYNLCAVVNHFGDLDGGHYTAFCKNSVTQAWYSFDDTRVSEIPDTSVQTATAYLLFYSCQPFSIPAQKRKSQDSTPDHCKQAIRKWP
binding: binds
